Measurements reported in PubChem BioAssay AID504764 (Drosophila RNAi Screening Center, 2011)
The deposit covers about 22,000 reagents; shown is an unselected part of those with a known target gene and a result. Of all reagents, 403 (1.9%) were called active. 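Unnormalised raw counts per well; ratio z-scores behind the hit calls and whether each hit raises or lowers signal are not deposited.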 Not given: the amount of reagent.

Screen: 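Genome-wide screen for regulators of Notch-driven gene expression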 (primary screen)
Cell system: Drosophila Kc167 cells
Reagent: long dsRNA against Drosophila genes
Time to read-out: about 5 days (4 days dsRNA, then 24 h after transfection)
Conditions: transfection of constitutively active membrane-tethered Notch lacking the extracellular domain, read 24 h later
Read-out: 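Firefly luciferase from an E(spl)m3 reporter with active Notch, plus control-promoter and uninduced reporter wells for normalisation; unnormalised counts, duplicate wells a and b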
Reading the numbers: induced reporter light, run 1, well a and induced reporter light, run 1, well b: higher = more light from the Notch target reporter with active Notch; control promoter light, run 1, well a and control promoter light, run 1, well b: higher = more light from the viral control promoter (cell number, transfection, viability); uninduced reporter light, run 1, well a: higher = more light from the Notch target reporter without active Notch
Call rule: 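Wells with low control signal or poorly matching duplicates excluded; duplicates averaged; per source plate, z beyond ±2 for induced/control log2 ratio or beyond ±1.8 for induced/uninduced marks a hit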
Meaning of the calls: active = modifier hit (raised or lowered Notch signal); inactive = not a hit

predicted target	amplicon	induced reporter light, run 1, well a	induced reporter light, run 1, well b	control promoter light, run 1, well a	control promoter light, run 1, well b	uninduced reporter light, run 1, well a	activity call
CG31142	DRSC13647	1.90e5	1.67e5	1.77e5	2.02e5	17580	inactive
Clp	DRSC00746	1.18e5	84050	65225	38305	6045	inactive
AttA	DRSC05926	2.55e5	2.02e5	2.50e5	2.44e5	16845	inactive
CG12910	DRSC06225	2.06e5	1.83e5	1.66e5	1.50e5	16815	inactive
RpS7	DRSC15394	11090	8128	13080	14125	730	inactive
CG2871	DRSC18230	1.44e5	1.55e5	2.78e5	2.67e5	11745	inactive
CG2871	DRSC21719						inactive
VhaM9.7-d	DRSC15028	1.10e5	89680	97100	1.06e5	8075	inactive
svp	DRSC12899	1.40e5	1.26e5	1.34e5	1.20e5	9095	inactive
svp	DRSC15311	65085	64330	73085	46380	4260	inactive
svp	DRSC17075	1.33e5	1.38e5	1.79e5	1.08e5	6985	inactive
twi	DRSC04720	60455	63335	47450	52845	7825	inactive
alrm	DRSC14436	1.52e5	1.32e5	1.98e5	1.87e5	11260	inactive
CG6761	DRSC10705	1.08e5	1.50e5	84440	64550	10520	inactive
RhoGAP19D	DRSC20499	1.41e5	1.43e5	1.12e5	71945	9830	inactive
RhoGAP19D	DRSC20500	98935	83580	95460	1.30e5	9820	inactive
CG11076	DRSC17197	1.12e5	1.27e5	1.91e5	1.72e5	9285	inactive
Oatp74D	DRSC09491	1.83e5	1.42e5	2.30e5	2.07e5	16800	inactive
Oatp74D	DRSC10883	1.29e5	92255	51010	63645	8335	inactive
Paics	DRSC20305	1.71e5	1.87e5	2.19e5	2.16e5	12845	inactive

Next part (4 carried over from the part before).
predicted target	amplicon	induced reporter light, run 1, well a	induced reporter light, run 1, well b	control promoter light, run 1, well a	control promoter light, run 1, well b	uninduced reporter light, run 1, well a	activity call
CG11076	DRSC17197	1.12e5	1.27e5	1.91e5	1.72e5	9285	inactive
Oatp74D	DRSC09491	1.83e5	1.42e5	2.30e5	2.07e5	16800	inactive
Oatp74D	DRSC10883	1.29e5	92255	51010	63645	8335	inactive
Paics	DRSC20305	1.71e5	1.87e5	2.19e5	2.16e5	12845	inactive
Slob	DRSC02296	1.20e5	1.40e5	1.74e5	2.10e5	12255	inactive
Fum2	DRSC18345	1.10e5	1.08e5	1.47e5	1.88e5	6990	inactive
CG31178	DRSC14590	1.72e5	1.42e5	2.23e5	2.16e5	15735	inactive
Vha16-3	DRSC10872	1.71e5	1.69e5	2.78e5	2.86e5	11160	inactive
uif	DRSC00963	96805	98865	1.34e5	1.16e5	7265	inactive
uif	DRSC03427	66930	57250	59465	64470	3715	inactive
Phae2	DRSC02555	1.37e5	1.47e5	1.55e5	1.32e5	12485	inactive
CG13577	DRSC04213	1.81e5	1.75e5	1.40e5	1.65e5	13095	inactive
Ir47a	DRSC06215	1.78e5	2.31e5	2.84e5	2.91e5	19585	inactive
CG15345 (retired record)	DRSC18030	1.51e5	1.54e5	3.15e5	2.54e5	10305	inactive
CG12084	DRSC08247	93375	1.04e5	1.86e5	2.18e5	9595	inactive
CG2006	DRSC15412	1.86e5	2.06e5	2.24e5	2.37e5	10875	inactive
CG12511	DRSC02171	56480	57930	66340	70390	3550	inactive
qvr	DRSC05280	2.50e5	1.91e5	2.95e5	3.10e5	23665	inactive
